Among all 210,000 compounds or so, about 5,900 (2.8%) were called active. Not shown: some 5% with an inconclusive outcome. The call rests on the fitted dose curve; in most records, active means well fitted activation curve with a large enough effect; inconclusive means small, poorly fitted or top-dose-only effect; inactive means no such curve, though single readings can be large or run the other way. This is a selection; strong and weak results do not stand in their true shares. Where no call is shown, the source filed none.
Test: qHTS Assay for Enhancers of SMN2 Splice Variant Expression; further: nearly all actives have a fitted effect of over 55% in size; on activity change, positive = activation: % of control where 0% means no effect
Settings: HEK293 SMN2-luciferase splicing reporter, luminescence, 30-36 h; activity change, positive = activation: at 46.1 µM (top of the series) unless noted
Outline: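 HEK293 cells carry an SMN2 minigene-luciferase reporter in which exon 7 inclusion puts luciferase in frame. Cells were seeded at 2000 cells/well, attached for 10-12 hours, then exposed to compounds for 30-36 hours at 37C before ONE-Glo luminescence.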
Potency means the concentration at half of the fitted maximal effect.

SMILES | activity change, positive = activation | Potency
Brc1ccc(/C=N/Nc2ccccn2)cc1 | 80% | 
C/C(=N\NC(=O)CC#N)c1cc2ccccc2oc1=O | -32.5% | 
CCc1ccc(CNC(=O)Cn2nc(-c3ccccc3)ccc2=O)cc1 | inactive: -46.3% | 
COc1ccc(OC)c(C(=O)c2coc3ccc(O)c(CN4CCOCC4)c23)c1 | 24.3% | 
Cc1ccc(SC(C)C(=O)Nc2ccccc2C(=O)N2CCOCC2)cc1 (stereo not given) | 33.6% | 
CCCCn1c(SCC(=O)Nc2nnc(C(C)C)s2)nc2c1c(=O)n(C)c(=O)n2C | -68.1% | 
CN=c1scc(-c2ccccc2Br)n1/N=C/c1ccc[nH]1 | -63.2% | 
Clc1ccccc1OCc1nc(-c2ccccn2)no1 |  | active: 4.47 µM
CCOc1c(Br)cc(C(N)=O)cc1OCc1ccccc1 | -16% | 
CC(C)(C)NC(=O)c1cccc2c1OC(C)(C)C2 | 1.36% | 
Cc1ccc(S(=O)(=O)Nc2ccc(C(=O)Nc3ccncc3)cc2)cc1 | 31.8% | 
Cc1cc(C)c(NC(=O)c2ccc(S(=O)(=O)N(C)C)cc2)c(C)n1 | 54% | 
COc1ccc(CCNC(=O)CCCn2nc(C)c([N+](=O)[O-])c2C)cc1OC | 51.5% | 
Cc1ccc(C2=[N+]([O-])C3(CCCCC3=O)N(O)C2(C)C)cc1 (stereo not given) | 27.1% | 
O=C1c2ccccc2S(=O)(=O)N1CC1CC(c2ccc(Cl)cc2)=NO1 (stereo not given) |  | active: 15.8 µM
COC(=O)c1ccc(C)c(NC(=O)c2c(-c3ccccc3)noc2C)c1 | 24.7% | 
CCCS(=O)(=O)c1ncc(Cl)c(C(=O)N(Cc2ccccc2)Cc2ccco2)n1 | inactive: -63.7% | 
CN(CC(=O)Nc1ccccc1Br)c1ncnc2sccc12 | -65.7% | 
Cn1c(=O)c2c(SCc3ccccn3)nc(CC(C)(C)C)nc2n(C)c1=O | 50.5% | 
O=C(Nc1ccc2c(c1)oc1ccccc12)c1ccncc1 | inactive: -23% | 
COC(=O)c1ccccc1NC(=O)CN1C(=O)c2ccccc2S1(=O)=O | 63.6% | 
COC(=O)c1ccc(-c2ccc(/C=N/NC(=O)CC3(C)OCCCO3)o2)cc1 |  | active: 11.2 µM
O=C1CC(SCc2nc3ccccc3[nH]2)C(=O)N1c1cccc(F)c1 (stereo not given) | 31.4% | 
CN(c1ccccc1)S(=O)(=O)c1ccc(NC(=O)c2ccc(-c3ccccc3)cc2)cc1 | -52.8% | 
CCOC(=O)C1CCCN(C(=O)c2ccc3c(=O)n(CCOC)c(=S)[nH]c3c2)C1 (stereo not given) | inactive: -66.6% | 
Fc1ccc(-c2cc(C(F)(F)F)nc(NCc3cccs3)n2)cc1 | inactive: -30.3% | 
COC(=O)c1ccc(OCC(=O)c2ccccc2OC)cc1 | inactive: -24.7% | 

SMILES | activity change, positive = activation | Potency
CC1CCCC(NC(=O)NC(=O)CCl)C1C (stereo not given) | inactive: -106% | 
O=C(CNS(=O)(=O)c1ccc(C(=O)N2CCCCC2)cc1)N1CCCCC1 | -58.4% | 
O=C(Oc1cc2oc(=O)cc(-c3ccccc3)c2cc1Cl)C1CCCCC1 | inactive: -34% | 
Cc1cccc(N(CC(O)Cn2c3ccccc3c3ccccc32)S(=O)(=O)c2ccc(F)cc2)c1 (stereo not given) | inactive: -92.2% | 
Cc1cccc(C)c1OCC(=O)Nc1ncn[nH]1 | -1.74% | 
COc1cccc(C2OC(=O)c3ccccc3N2C(C)=O)c1OC(C)=O (stereo not given) | 51.8% | 
O=C(CSc1nc2scc(-c3ccco3)c2c(=O)n1-c1ccccc1)N1CCOCC1 | 34.9% | 
CN(C)c1ccnc2sc(C(=O)NCc3ccccc3)c(N)c12 | 43.6% | 
Cc1cc(C=C2C(=O)c3ccccc3C2=O)c(C)n1-c1ccc(Cl)cc1 | inactive: -60.1% | 
CCc1ccccc1N1CC(c2nc3ccccc3n2CCCCOc2ccccc2OC)CC1=O (stereo not given) | inactive: -73.1% | 
COc1ccc(/C=N/NC(=S)Nc2cccc(C(=O)O)c2)cc1 |  | active: 12.6 µM
COc1ccc(C(=O)N(Cc2ccco2)Cc2cccs2)c(O)c1 | 27% | 
CNc1nnc(-c2ccc(OC)cc2)s1 |  | active: 12.6 µM
OC1C=C2CCN3Cc4cc5c(cc4C(C1O)C23)OCO5 (stereo not given) | inactive: -49% | 
COc1cc(C2NC(=S)NC(O)(C(F)(F)F)C2C(=O)c2cccs2)cc(OC)c1O (stereo not given) | 31.8% | 
CCCc1[nH]nc2c1C(c1ccc(OCCN3CCOCC3)c(OCC)c1)C(C#N)=C(N)O2 (stereo not given) | 52.9% | 
C/C(=N\OC(=O)NC1CCCCC1)c1sc(-c2ccccc2)nc1C | inactive: -54.7% | 
O=C(O)c1ccc(N/N=C/c2ccc(C(F)(F)F)cc2)cc1 | inactive: -54.6% | 
Nc1nc(SCc2ccccc2)[nH]c(=O)c1-c1ccccc1 |  | active: 12.6 µM
Nc1nc(Nc2ccc(Cl)cc2)nc2ccccc12 | 14.1% | 
CC(C)N(Cc1ccccc1)S(=O)(=O)N(C)C | 38.3% | 
COC(=O)c1ccc(NC(=S)Nc2ccccc2)cc1 | inactive: -39.6% | 
O=C(CS(=O)(=O)c1ccccc1)N1CCc2ccccc21 |  | active: 14.1 µM
COC(=O)C1=C(C)N(C)C(=S)NC1c1ccc(OC)cc1OC (stereo not given) | 25.8% | 
O=C(c1ccco1)N1CCN(Cc2cccc(F)c2)CC1 | 62.3% | 
O=C(N/N=C/c1ccccc1)c1n[nH]c2c1CCCC2 |  | active: 5.01 µM
CC(=O)Nc1ccc(C)cc1NC(C)=O | 35.1% | 

Ordered by number of heavy atoms (high to low): some entries from above.
SMILES | activity change, positive = activation | Potency
Cc1cccc(N(CC(O)Cn2c3ccccc3c3ccccc32)S(=O)(=O)c2ccc(F)cc2)c1 (stereo not given) | inactive: -92.2% | 
CCCc1[nH]nc2c1C(c1ccc(OCCN3CCOCC3)c(OCC)c1)C(C#N)=C(N)O2 (stereo not given) | 52.9% | 
C/C(=N\OC(=O)NC1CCCCC1)c1sc(-c2ccccc2)nc1C | inactive: -54.7% | 
O=C(O)c1ccc(N/N=C/c2ccc(C(F)(F)F)cc2)cc1 | inactive: -54.6% | 
O=C(CS(=O)(=O)c1ccccc1)N1CCc2ccccc21 |  | active: 14.1 µM
O=C(N/N=C/c1ccccc1)c1n[nH]c2c1CCCC2 |  | active: 5.01 µM

Additional compounds follow:

SMILES | activity change, positive = activation | Potency
O=C(N/N=C/c1c(O)ccc2ccccc12)c1cccc(C(F)(F)F)c1 | inactive: -106% | 
CCC1C(=O)n2nc(-c3ccccc3)cc2N=C1C (stereo not given) |  | active: 12.6 µM
O=C(Cn1cncn1)c1ccc(F)cc1F | 39.8% | 
Cc1ccc(-c2c(C)n3c4c(=O)n(C)c(=O)n(C)c4nc3n2CCCO)cc1 | inactive: -51.3% | 
O=C(O)C(=O)/C(=C\c1ccc(Cl)cc1)c1ccc2ccccc2n1 |  | active: 12.6 µM
O=C1CC(c2ccccc2)Cc2nc3ncnn3cc21 (stereo not given) | 30.3% | 
CCC(=O)Nc1cccc(C(=O)/C=C/c2cc(Br)ccc2OC)c1 | -91.8% | 
CC(=O)c1c(C)[nH]c(C(=O)CSc2nnc(-c3ccccc3)n2Cc2ccc3c(c2)OCO3)c1C | 36.3% | 
CCC(=O)N1CCc2cc(S(=O)(=O)N(CC)c3cccc(C)c3)ccc21 | -28.9% | 
COCCNS(=O)(=O)c1ccc(-c2ccc(C)cc2)cc1 | -65.5% | 
CC(C)Cc1nc(NCCN2CCOCC2)c(C#N)c2c1COC(C)(C)C2 | 34.6% | 
COCCn1nnnc1C(c1cc(OC)ccc1OC)N1CCc2ccccc2C1 (stereo not given) | 37.4% | 
C=CCn1c(C)cc(-c2csc(NCC)n2)c1C | 150% | 
Cc1cc(C(=O)CN2C(=O)NC3(CCCc4ccccc43)C2=O)c(C)n1Cc1ccco1 (stereo not given) | 35.5% | 
COc1ccc(CCNC(=O)CSc2nnnn2-c2ccc(OC)c(OC)c2)cc1OC | -32.8% | 
N#CC/C(N)=N/NC(=O)CCCNc1ncc(C(F)(F)F)cc1Cl |  | active: 15.8 µM
CC(C)Cn1c(=O)[nH]c2ccccc21 | 54.9% | 
Cc1ccc(/C=C/C(=O)OCC(=O)Nc2cccc(S(=O)(=O)N(C)C)c2)o1 | inactive: 5.73% | 
O=C(Nc1ccc2c(c1)N(Cc1ccccc1)C(=O)c1ccccc1S2)NC1CC1 | -34.5% | 
CCN1CCN(CCNC(=O)CSCc2nc(-c3ccc(OC)c(OC)c3)oc2C)CC1 | -30.8% | 
CCOc1c(Cl)cc(CNc2ccc(S(N)(=O)=O)cc2)cc1OC | -67.1% | 
O=C(N/N=C1\CCCc2ccccc21)c1ccc([N+](=O)[O-])cc1 |  | active: 14.1 µM
O=C(Nc1ccc(Cl)cn1)c1ccc(COc2ccccc2Br)o1 |  | active: 12.6 µM
CC(C)C(=O)Nc1cccc(C(=O)Nc2ccc3c(c2)OCO3)c1 |  | active: 15.8 µM
CCOC(=O)c1nc(S(C)(=O)=O)ncc1Cl | 60.7% | 
C[C@@H]1OC(OC2CC[C@@]3(C)C(CC[C@@]4(C)C3CC=C3C5CC(C)(C)CC[C@]5(C(=O)OC5OCC(O)[C@@H](O)[C@@H]5OC5O[C@@H](C)[C@H](O[C@H]6OC(CO)C(O)C(O)C6O)C(O)C5O)C(O)C[C@@]34C)C2(C)C)C(O)C(O)[C@H]1OC1OCC(O)C(O)[C@H]1O (stereo not given in full) | inactive: -53.1% | 
Cc1cc(C)c(C#N)c(SCC(=O)Nc2nnc(-c3ccccc3)s2)n1 | 30.9% | 

SMILES | activity change, positive = activation | Potency
Cn1c(N2CCN(c3ccccn3)CC2)nc2c1c(=O)n(Cc1ccc(Cl)cc1)c(=O)n2C | inactive: -56.5% | 
COc1ccc(NC(=O)CSc2nc(C)cc(C)n2)cc1 | 37.4% | 
Cc1ccc(S(=O)(=O)N2CCOCC2)cc1NC(=O)CSc1nnc2cc(C)c3ccccc3n12 | inactive: -36.9% | 
COc1ccccc1NC(=O)C1=C(C)Nc2nc(CCCO)nn2C1c1cccc(O)c1 (stereo not given) | 24.8% | 
Cc1cc(N)c2ccccc2[n+]1CCCCCCCCCC[n+]1c(C)cc(N)c2ccccc21 |  | inactive
O=C(CCCCn1c(=O)c2ccccc2n(Cc2ccc(F)cc2)c1=O)NCc1ccco1 | 32% | 
Cc1cc(Br)cc(C)c1OCCCCN(C)C | -76.4% | 
CC(=O)Nc1ccc(NC(=O)c2ccc(-n3c(C)ccc3C)cc2)cc1 | 38% | 
COc1ccc(Nc2nc(C)cc(C)c2C#N)cc1 | 46.8% | 
CN(C)c1ccc(/C=C(/NC(=O)c2ccccc2)C(=O)N/N=C/c2ccc([N+](=O)[O-])c(O)c2)cc1 | 32.8% | 
O=C(Nc1ccc(OCC(F)(F)C(F)F)cc1)c1ccncc1 | inactive: -66.4% | 
Cc1ccc(OCC(=O)c2cc(C)n(-c3ccccc3)c2C)c([N+](=O)[O-])n1 | inactive: -57.5% | 
O=C(COC(=O)c1cccnc1Nc1ccccc1F)NCCN1C(=O)CSC1=O | 20.5% | 
CCCC(=O)Nc1ccc2oc(-c3cncc(Br)c3)nc2c1 |  | active: 4.47 µM
COc1ccc(/C=C/C(=O)c2ccc(O)cc2O)cc1OC | inactive: -88.6% | 
O=S(=O)(c1ccc(F)c(Cl)c1)N1CCCC1 | 19.8% | 
COc1cc(S(=O)(=O)NCCCN2CCOCC2)ccc1Cl | 31.9% | 
O=C(c1ccc2c(=O)n(-c3ccccc3)c(=O)[nH]c2c1)N1CCCCC1 | -49.8% | 
COc1ccc(C(=O)N=c2nc3ccccn3s2)cc1 | 101% | 
CCOc1cc(CNCCSc2nnnn2C)cc(Br)c1OCc1ccccc1 | -68.3% | 
Oc1ccc(Cl)cc1CNc1ccc(Br)cn1 | 53.9% | 
CCC(=O)N1CCCc2cc(S(=O)(=O)N3CCN(c4ccccn4)CC3)ccc21 | -35.2% | 
Cc1ccn2c(Nc3ccc4c(c3)OCO4)c(-c3ccc(N(C)C)cc3)nc2c1 |  | active: 15.8 µM
CCCn1cc(SCC(=O)NCC2CCCO2)c2ccccc21 (stereo not given) | 35.6% | 
